Experimental data taken from publication PMC5640428.
Results are given in words; binding and its absence hold for the method and conditions named. Binding seen in cells or lysates may run through a third protein. Here binding means that the protein was enriched with, or labelled near, the bait; the list need not be complete.

T1: native KCC2 (K+-Cl- cotransporter KCC2) (mouse (endogenous in brain)) (UniProt Q91V14)
T1 sequence: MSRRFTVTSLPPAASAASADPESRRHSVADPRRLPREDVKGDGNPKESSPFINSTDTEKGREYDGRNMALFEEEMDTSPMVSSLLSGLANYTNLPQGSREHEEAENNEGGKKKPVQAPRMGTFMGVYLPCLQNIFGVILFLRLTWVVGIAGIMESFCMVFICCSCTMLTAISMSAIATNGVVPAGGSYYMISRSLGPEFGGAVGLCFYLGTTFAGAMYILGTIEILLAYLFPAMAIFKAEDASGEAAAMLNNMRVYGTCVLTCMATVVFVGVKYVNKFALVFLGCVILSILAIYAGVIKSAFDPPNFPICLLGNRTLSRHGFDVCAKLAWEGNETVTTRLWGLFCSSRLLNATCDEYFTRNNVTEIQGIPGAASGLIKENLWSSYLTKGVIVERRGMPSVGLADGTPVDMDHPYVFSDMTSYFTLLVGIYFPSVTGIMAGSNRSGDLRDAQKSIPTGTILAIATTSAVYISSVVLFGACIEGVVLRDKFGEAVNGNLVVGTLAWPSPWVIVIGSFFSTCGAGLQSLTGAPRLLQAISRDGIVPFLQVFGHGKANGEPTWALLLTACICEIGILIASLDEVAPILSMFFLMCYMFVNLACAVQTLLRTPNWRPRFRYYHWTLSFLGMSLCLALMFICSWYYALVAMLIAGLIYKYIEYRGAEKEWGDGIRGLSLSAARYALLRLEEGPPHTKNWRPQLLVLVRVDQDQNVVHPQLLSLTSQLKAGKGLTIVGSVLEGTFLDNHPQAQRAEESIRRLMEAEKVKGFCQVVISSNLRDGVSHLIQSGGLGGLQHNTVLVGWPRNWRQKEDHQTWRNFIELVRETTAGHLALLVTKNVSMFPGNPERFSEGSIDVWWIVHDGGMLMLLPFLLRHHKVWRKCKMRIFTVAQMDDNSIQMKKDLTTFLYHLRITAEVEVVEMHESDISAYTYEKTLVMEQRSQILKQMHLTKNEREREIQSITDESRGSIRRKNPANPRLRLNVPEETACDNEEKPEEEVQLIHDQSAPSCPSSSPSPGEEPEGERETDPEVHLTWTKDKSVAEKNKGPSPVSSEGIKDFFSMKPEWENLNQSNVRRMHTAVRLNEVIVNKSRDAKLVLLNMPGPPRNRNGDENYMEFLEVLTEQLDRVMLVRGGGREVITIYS

B1: RAB11FIP5 (protein, UniProt Q8R361 1-645)
chain: MALVRDPEPAAGSSRWLPTHVQVTVLRASGLRGKSSGAGSTSDAYTVIQVGREKYSTSVVEKTQGCPEWCEECSFELPPGALDGLLRAQEADAGPAPWASGPNAACELVLTTMHRSLIGVDKFLGRATVALDEVFRAGRAQHTQWYRLHSKPGKKEKERGEIQVTIQFTRNNLSASMFDLSMKDKPRSPFSKLKDRVKGKKKYDLESASAILPSSALEDPELGSLGKMGKAKGFFLRNKLRKSSLTQSNTSLGSDSTLSSTSGSLVYQGPGAELLTRSPSHSSWLSTEGGRDSIQSPKLLTHKRTYSDEASQLRAAPPRALLELQGHLDGASRSSLCVNGSHVYNEEPQPPLRHRSSISGPFPPSSSLHSVPPRSSEEGSRSSDDSWGRGSHGTSSSEAVPGQEELSKQAKGASCSGEEEGARLPEGKPVQVATPMVASSEAVAAEKDRKPRMGLFHHHHHQGLSRSEQGRRGSVGEKGSPSLGASPHHSSTGEEKAKSSWFGLRESKEPTQKPSPHPVKPLTAAPVEASPDRKQPRTSLSTALSSGLERLKTVTSGGIQSVLPASQLGSSVDTKRPKDSAVLDQSAKYYHLTHDELIGLLLQRERELSQRDEHVQELESYIDRLLVRIMETSPTLLQISPGPPK
B2: CCT2 (protein, UniProt P80314 1-535)
chain: MASLSLAPVNIFKAGADEERAETARLSSFIGAIAIGDLVKSTLGPKGMDKILLSSGRDAALMVTNDGATILKNIGVDNPAAKVLVDMSRVQDDEVGDGTTSVTVLAAELLREAESLIAKKIHPQTIISGWREATKAAREALLSSAVDHGSDEARFWQDLMNIAGTTLSSKLLTHHKDHFTKLAVEAVLRLKGSGNLEAIHVIKKLGGSLADSYLDEGFLLDKKIGVNQPKRIENAKILIANTGMDTDKIKIFGSRVRVDSTAKVAEIEHAEKEKMKEKVERILKHGINCFINRQLIYNYPEQLFGAAGVMAIEHADFAGVERLALVTGGEIASTFDHPELVKLGSCKLIEEVMIGEDKLIHFSGVALGEACTIVLRGATQQILDEAERSLHDALCVLAQTVKDPRTVYGGGCSEMLMAHAVTQLANRTPGKEAVAMESFAKALRMLPTIIADNAGYDSADLVAQLRAAHSEGHITAGLDMKEGTIGDMAVLGITESFQVKRQVLLSAAEAAEVILRVDNIIKAAPRKRVPDHHPC
B3: NARS (protein, UniProt Q8BP47 1-559)
chain: MSSEVIRGTAEMVLAELYVSDREGNDATGDGTKEKPFKTGLKALMTVGKEPFPTIYVDSQKENERWDVISKSQMKNIKKMWHREQMKNDSREKKEAEDNLRREKNLEEAKKIIIKNDPSLPEPACVKISALEGYRGQRVKVFGWVHRLRRQGKNLMFLVLRDGTGYLQCVLSDDLCQCYNGVVLSTESSVAVYGTLNLTPKGKQAPGGHELSCDFWELVGLAPAGGADNLINEESDVDVQLNNRHMMIRGENMSKILKARSMITRCFRDHFFDRGYCEVTTPTLVQTQVEGGATLFKLDYFGEEAFLTQSSQLYLETCLPALGDVFCIAQSYRAEQSRTRRHLAEFTHVEAECPFLTFEDLLNRLEDLVCDVVDRVLKSPVASIVYELNPNFKPPKRPFRRMNYSDAIEWLKEHDVKKEDGTFYEFGDDIPEAPERLMTDTINEPILLCRFPVEIKSFYMQRCPEDPRLTESVDVLMPNVGEIVGGSMRSWDSEEILEGYKREGIDPAPYYWYTDQRKYGTCPHGGYGLGLERFLSWILNRYHIRDVCLYPRFLQRCRP
B4: DLD (protein, UniProt O08749 36-509)
chain: ADQPIEADVTVIGSGPGGYVAAIKSAQLGFKTVCIEKNETLGGTCLNVGCIPSKALLNNSHYYHMAHGKDFASRGIEIPEVRLNLEKMMEQKHSAVKALTGGIAHLFKQNKVVHVNGFGKITGKNQVTATKADGSTQVIDTKNILVATGSEVTPFPGITIDEDTIVSSTGALSLKKVPEKLVVIGAGVIGVELGSVWQRLGADVTAVEFLGHVGGIGIDMEISKNFQRILQRQGFKFKLNTKVTGATKKSDGKIDVSVEAASGGKAEVITCDVLLVCIGRRPFTQNLGLEELGIELDPKGRIPVNNRFQTKIPNIYAIGDVVAGPMLAHKAEDEGIICVEGMAGGAVHIDYNCVPSVIYTHPEVAWVGKSEEQLKEEGIEFKIGKFPFAANSRAKTNADTDGMVKILGHKSTDRVLGAHILGPGAGEMVNEAALALEYGASCEDIARVCHAHPTLSEAFREANLAAAFGKPINF
B5: DNM1 (protein, UniProt P39053 1-867)
chain: MGNRGMEDLIPLVNRLQDAFSAIGQNADLDLPQIAVVGGQSAGKSSVLENFVGRDFLPRGSGIVTRRPLVLQLVNSTTEYAEFLHCKGKKFTDFEEVRLEIEAETDRVTGTNKGISPVPINLRVYSPHVLNLTLVDLPGMTKVPVGDQPPDIEFQIRDMLMQFVTKENCLILAVSPANSDLANSDALKIAKEVDPQGQRTIGVITKLDLMDEGTDARDVLENKLLPLRRGYIGVVNRSQKDIDGKKDITAALAAERKFFLSHPSYRHLADRMGTPYLQKVLNQQLTNHIRDTLPGLRNKLQSQLLSIEKEVDEYKNFRPDDPARKTKALLQMVQQFAVDFEKRIEGSGDQIDTYELSGGARINRIFHERFPFELVKMEFDEKELRREISYAIKNIHGIRTGLFTPDMAFETIVKKQVKKIREPCLKCVDMVISELISTVRQCTKKLQQYPRLREEMERIVTTHIREREGRTKEQVMLLIDIELAYMNTNHEDFIGFANAQQRSNQMNKKKTSGNQDEILVIRKGWLTINNIGIMKGGSKEYWFVLTAENLSWYKDDEEKEKKYMLSVDNLKLRDVEKGFMSSKHIFALFNTEQRNVYKDYRQLELACETQEEVDSWKASFLRAGVYPERVGDKEKASETEENGSDSFMHSMDPQLERQVETIRNLVDSYMAIVNKTVRDLMPKTIMHLMINNTKEFIFSELLANLYSCGDQNTLMEESAEQAQRRDEMLRMYHALKEALSIIGDINTTTVSTPMPPPVDDSWLQVQSVPAGRRSPTSSPTPQRRAPAVPPARPGSRGPAPGPPPAGSALGGAPPVPSRPGASPDPFGPPPQVPSRPNRAPPGVPSLGAWRLNSPQGKHENRAGKARL
B6: PRRT2 (protein, UniProt E9PUL5 1-346)
chain: MAASSSQVSEMKGVEDSSKTQTEGPRHSEEGLGPVQVVAEIPDQPEALQPGPGITAAPVDSGPKAELAPETTETPVETPETVQATDLSLNPEEGSKASPSPSPSEARQEPASKPDVNRETAAEEGSEPQSTAPPEPTSEPAFQINTQSDPQPTSQPPPKPPLQAEPPTQEDPTTEVLTESTGEKQENGAVVPLQAGDGEEGPAPQPHSPPSTKTPPANGAPPRVLQKLVEEDRIGRAHGGHPGSPRGSLSRHPSSQLAGPGVEGGEGTQKPRDYIILAILSCFCPMWPVNIVAFAYAVMSRNSLQQGDVDGAQRLGRVAKLLSIVALVGGVLIIIASCVINLGVYK
B7: SYNGR3 (protein, UniProt Q8R191 1-229)
chain: MEGASFGAGRAGAAFDPVSFARRPQTLLRVVSWVFSIAVFGPIVNEGYVNSDSGPELRCVFNGNAGACRFGVVLGLGAFIACVAFLLLDVRFQQISSVRDRRRAVLLDLGFSGVWSFLWFVGFCFLTNQWQRTTPGPGTAQAGDAARAAIAFSFFSILSWVALTVKALQRFRLGTDMSLFATDQLGTGAAQAYPGYPVGSGVEGTETYQSPPFTETLDTSSKGYQVPAY
B8: SLC25A11 (protein, UniProt Q9CR62 1-314)
chain: MAATASPGAGRMDGKPRTSPKSVKFLFGGLAGMGATVFVQPLDLVKNRMQLSGEGAKTREYKTSFHALTSILKTEGLKGIYTGLSAGLLRQATYTTTRLGIYTVLFERLTGADGTPPGFLLKALIGMTAGATGAFVGTPAEVALIRMTADGRLPADQRRGYKNVFNALVRIAREEGVPTLWRGCIPTMARAVVVNAAQLASYSQSKQFLLDSGYFSDNILCHFCASMISGLVTTAASMPVDIVKTRIQNMRMIDGKPEYKNGLDVLLKVVRYEGFFSLWKGFTPYYARLGPHTVLTFIFLEQMNKAYKRLFLSG
B9: SFPQ (protein, UniProt Q8VIJ6 1-699)
chain: MSRDRFRSRGGGGGGFHRRGGGGGRGGLHDFRSPPPGMGLNQNRGPMGPGPGGPKPPLPPPPPHQQQQQPPPQQPPPQQPPPHQQPPPHQPPHQQPPPPPQESKPVVPQGPGSAPGVSSAPPPAVSAPPANPPTTGAPPGPGPTPTPPPAVPSTAPGPPPPSTPSSGVSTTPPQTGGPPPPPAGGAGPGPKPGPGPGGPKGGKMPGGPKPGGGPGMGAPGGHPKPPHRGGGEPRGGRQHHAPYHQQHHQGPPPGGPGPRTEEKISDSEGFKANLSLLRRPGEKTYTQRCRLFVGNLPADITEDEFKRLFAKYGEPGEVFINKGKGFGFIKLESRALAEIAKAELDDTPMRGRQLRVRFATHAAALSVRNLSPYVSNELLEEAFSQFGPIERAVVIVDDRGRSTGKGIVEFASKPAARKAFERCSEGVFLLTTTPRPVIVEPLEQLDDEDGLPEKLAQKNPMYQKERETPPRFAQHGTFEYEYSQRWKSLDEMEKQQREQVEKNMKDAKDKLESEMEDAYHEHQANLLRQDLMRRQEELRRMEELHSQEMQKRKEMQLRQEEERRRREEEMMIRQREMEEQMRRQREESYSRMGYMDPRERDMRMGGGGTMNMGDPYGSGGQKFPPLGGGGGIGYEANPGVPPATMSGSMMGSDMRTERFGQGGAGPVGGQGPRGMGPGTPAGYGRGREEYEGPNKKPRF
B10: NDUFS5 (protein, UniProt Q99LY9 1-106)
chain: MPFLDIQKKLGISLDRHFMFLSAEQPYKNAARCHAFEKEWIECAHGIGGTRAKKECKIEFDDFEECLLRYKTMRRMHDIKKQREKLMKEGKYTPPPHHSGREEPRP

Each binder was assayed against T1, native KCC2 (K+-Cl- cotransporter KCC2) (mouse (endogenous in brain)) (assay: affinity purification with mass spectrometry; anti-KCC2 antibodies (C-terminal, N-terminal KCC2b, pS940) cross-linked with DMP to GammaBind IgG beads; C12E9-solubilised whole-brain membrane fractions of P5 and P50 mice; 4 hr, 4°C; parallel IgG/IgY controls).

binding | Binder
binds | B1
binds | B2
binds | B3
binds | B4
binds | B5
binds | B6
binds | B7
binds | B8
binds | B9
binds | B10
